Holding throughout (assay): PELDOR (pulsed EPR); 70 μM spin-labelled PcrA in D2O buffer (10 mM TES pH 7.4, 500 mM NaCl), alone or with 150 μM hairpin DNA and/or AMP-PNP or ADP with MgCl2, 5% EG-d6; frozen solution, measured at 50 K, X-band; both purified
The target of assay [1] is PcrA E74C-V344C, spin labelled with MTSSL (74R1-344R1) (Bacillus stearothermophilus) (UniProt P56255).
The target of assay [2] is PcrA E74C-Q506C, spin labelled with MTSSL (74R1-506R1) (Bacillus stearothermophilus) (UniProt P56255).
Assay [3] deals with PcrA V344C-Q506C, spin labelled with MTSSL (344R1-506R1) (Bacillus stearothermophilus) (UniProt P56255).

This passage reports binding results from paper PMC4737156, “Taking a molecular motor for a spin: helicase mechanism studied by spin labeling and PELDOR”.

Substitutions are numbered along the chain they refer to. Names and notes keep the numbering of the source. These are yes or no findings as the source states them, for the method shown.

B1: PcrA E74C-V344C, spin labelled with MTSSL (74R1-344R1) (enzyme, UniProt P56255 1-724)
chain: MNFLSEQLLAHLNKEQQEAVRTTEGPLLIMAGAGSGKTRVLTHRIAYLMAEKHVAPWNILAITFTNKAAREMRCRVQSLLGGAAEDVWISTFHSMCVRILRRDIDRIGINRNFSILDPTDQLSVMKTILKEKNIDPKKFEPRTILGTISAAKNELLPPEQFAKRASTYYEKVVSDVYQEYQQRLLRNHSLDFDDLIMTTIQLFDRVPDVLHYYQYKFQYIHIDEYQDTNRAQYTLVKKLAERFQNICAVGDADQSIYRWRGADIQNILSFERDYPNAKVILLEQNYRSTKRILQAANEVIEHNVNRKPKRIWTENPEGKPILYYEAMNEADEAQFVAGRIREACERGERRYRDFAVLYRTNAQSRVMEEMLLKANIPYQIVGGLKFYDRKEIKDILAYLRVIANPDDDLSLLRIINVPKRGIGASTIDKLVRYAADHELSLFEALGELEMIGLGAKAAGALAAFRSQLEQWTQLQEYVSVTELVEEVLDKSGYREMLKAERTIEAQSRLENLDEFLSVTKHFENVSDDKSLIAFLTDLALISDLDELDGTEQAAEGDAVMLMTLHAAKGLEFPVVFLIGMEEGIFPHNRSLEDDDEMEEERRLAYVGITRAEEELVLTSAQMRTLFGNIQMDPPSRFLNEIPAHLLETASRRQAGASRPAVSRPQASGAVGSWKVGDRANHRKWGIGTVVSVRGGGDDQELDIAFPSPIGIKRLLAKFAPIEKV
modifications: MTSSL spin label (R1) on cysteines 74 and 344
Turning to B1, the binding result in assay [1] is reported as “no binding (tested: 70 μM)”.

B2: PcrA E74C-Q506C, spin labelled with MTSSL (74R1-506R1) (enzyme, UniProt P56255 1-724)
chain: B1 chain with C344V, Q506C
modifications: MTSSL spin label (R1) on cysteines 74 and 506
In the case of B2, in assay [2], the binding entry is recorded as “no binding (tested: 70 μM)”.

B3: PcrA V344C-Q506C, spin labelled with MTSSL (344R1-506R1) (enzyme, UniProt P56255 1-724)
chain: B1 chain with C74E, Q506C
modifications: MTSSL spin label (R1) on cysteines 344 and 506
As for B3, in assay [3], the binding entry was “no binding (tested: 70 μM)”.
